Laboratory results as given in publication PMC4806301.
These are yes or no findings as the source states them, for the method shown. In cells and extracts the contact can be indirect.

The chains behind the UniProt entries cited, without tags or fusion partners.
UniProt O00429: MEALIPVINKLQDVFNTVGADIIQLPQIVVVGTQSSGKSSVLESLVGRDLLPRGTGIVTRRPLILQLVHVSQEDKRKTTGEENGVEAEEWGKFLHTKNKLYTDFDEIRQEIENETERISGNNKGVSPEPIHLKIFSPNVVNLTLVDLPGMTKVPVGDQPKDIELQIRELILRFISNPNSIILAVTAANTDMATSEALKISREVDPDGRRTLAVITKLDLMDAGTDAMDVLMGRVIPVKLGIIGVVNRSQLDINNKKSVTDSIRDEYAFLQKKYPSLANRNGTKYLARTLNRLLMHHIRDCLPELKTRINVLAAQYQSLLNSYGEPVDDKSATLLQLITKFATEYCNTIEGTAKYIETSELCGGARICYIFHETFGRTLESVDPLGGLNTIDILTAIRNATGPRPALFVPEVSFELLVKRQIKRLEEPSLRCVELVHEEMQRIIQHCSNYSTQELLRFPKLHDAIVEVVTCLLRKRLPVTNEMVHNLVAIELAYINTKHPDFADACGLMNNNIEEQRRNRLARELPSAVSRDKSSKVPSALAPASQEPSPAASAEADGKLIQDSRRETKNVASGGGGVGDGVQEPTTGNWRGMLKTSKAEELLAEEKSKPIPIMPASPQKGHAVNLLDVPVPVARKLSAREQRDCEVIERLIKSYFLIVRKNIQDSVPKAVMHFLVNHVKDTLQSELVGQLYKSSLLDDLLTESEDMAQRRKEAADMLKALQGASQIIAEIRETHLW

Target: NS5A of the HCV sub-genomic replicon in JL377-2 cells (hepatitis C virus (sub-genotype 1b, isolate Con1)) (UniProt Q9WMX2)
Experiment: co-IP; Huh-7 or JL377-2 (HCV replicon) cell lysates in RIPA buffer (20 mM Tris pH 8.0, 100 mM NaCl, 0.1% NP-40) with 1 mM MgCl and 0.1 mM GDP or GTPγS; immunoprecipitation with α-NS5A antibody (anti-HA as control) and protein A-sepharose, at least 4 hours at 4 °C; blots for endogenous Drp1 and mitofusin 2

For “Dynamin-related protein 1 (Drp1), endogenous (from UniProt O00429 1-736)”, the binding was “no binding”.
